Measured values reported in PubChem BioAssay AID2271 (NMMLSC, 2010).
This is one part of the list.

Experiment: LAP4-GFP expression modulators in yeast, confirmation, cell-based, cherry picks, flow cytometry, mother/daughter gates (AID 2271);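 note: ratio of sample to DMSO plate mean so 100% equals DMSO level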
Settings: S. cerevisiae LAP4-GFP strain, 3 h, at 10 µM, stronger effect = higher value, 100 means same as DMSO control
Summary of the method: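 System: Alexa 633-stained baker's yeast GFP-fusion strain / Medium: synthetic complete (SC) yeast growth medium / Doses: compound at 10 µM, single point / Times: 3 h treatment at 30 °C with rotation / Detection: HT flow cytometry, GFP fluorescence channel / Benchmarks: DMSO-only negative wells, rapamycin 400 ng/mL positive wells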

[1] = measured here: daughter cell gate response
[2] = measured here: mother cell gate response

With `C[N+]1=C2C=CC=CC=C2SC12C([N+](=O)[O-])=CC([N+](=O)[O-])=C[C-]2[N+](=O)[O-]` (stereo unspecified) the GFP response relative to DMSO [1] was 156% and the GFP response relative to DMSO [2] was 171%.

Work on `O=P(Nc1nccs1)(c1ccccc1)c1nc2ccccc2s1` (stereo unspecified) yielded a GFP response relative to DMSO [1] of 120% and a GFP response relative to DMSO [2] of 131%.

In the case of `CCOP(=O)(Nc1cccc2ccccc12)OCC`, the GFP response relative to DMSO [1] was 99.1% and the GFP response relative to DMSO [2] was 96.2%.
